# In publication PMC3289600:
# Results are given in words; binding and its absence hold for the method and conditions named. Binding seen in cells or lysates may run through a third protein. Some entries that bind do so weakly or less than the wild type.
# Experiments:
# [1] = target: T1, E3-ubiquitin ligase TRIM24 (human (endogenous in hESCs)) (UniProt O15164); assay: co-IP; as a1, lysates of differentiating hESCs after RA addition (differentiation medium without FGF, 1 uM RA); immunoprecipitated with HDM2 or TRIM24 antibodies, Western blot
# T1 sequence: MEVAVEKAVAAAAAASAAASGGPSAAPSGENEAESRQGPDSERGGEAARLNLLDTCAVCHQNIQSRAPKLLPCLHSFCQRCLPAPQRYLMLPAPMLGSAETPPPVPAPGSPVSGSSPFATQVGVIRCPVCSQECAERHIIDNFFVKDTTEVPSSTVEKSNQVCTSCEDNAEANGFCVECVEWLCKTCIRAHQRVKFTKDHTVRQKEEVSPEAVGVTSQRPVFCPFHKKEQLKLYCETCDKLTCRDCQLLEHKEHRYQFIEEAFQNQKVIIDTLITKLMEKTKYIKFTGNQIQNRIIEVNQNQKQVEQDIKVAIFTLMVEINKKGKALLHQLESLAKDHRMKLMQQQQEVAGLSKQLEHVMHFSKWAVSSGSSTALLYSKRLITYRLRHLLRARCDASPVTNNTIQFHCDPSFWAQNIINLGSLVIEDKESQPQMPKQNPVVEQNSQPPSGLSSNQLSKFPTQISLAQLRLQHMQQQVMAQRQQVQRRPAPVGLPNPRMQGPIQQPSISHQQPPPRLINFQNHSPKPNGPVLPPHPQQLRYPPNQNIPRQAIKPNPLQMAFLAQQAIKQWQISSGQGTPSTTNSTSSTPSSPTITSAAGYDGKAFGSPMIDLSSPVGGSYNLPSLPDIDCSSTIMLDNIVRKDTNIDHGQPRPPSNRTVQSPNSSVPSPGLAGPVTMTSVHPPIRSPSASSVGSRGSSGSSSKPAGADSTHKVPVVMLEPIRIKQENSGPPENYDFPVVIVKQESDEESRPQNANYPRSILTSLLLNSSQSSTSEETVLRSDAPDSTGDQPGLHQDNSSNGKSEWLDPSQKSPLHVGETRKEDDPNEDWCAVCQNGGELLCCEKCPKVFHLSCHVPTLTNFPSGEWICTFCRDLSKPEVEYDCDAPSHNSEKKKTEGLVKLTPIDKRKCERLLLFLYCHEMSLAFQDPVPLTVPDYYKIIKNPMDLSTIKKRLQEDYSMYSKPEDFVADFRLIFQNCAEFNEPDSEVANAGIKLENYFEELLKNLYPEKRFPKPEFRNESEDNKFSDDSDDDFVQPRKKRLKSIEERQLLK
# [2] = target: T1, E3-ubiquitin ligase TRIM24 (human (endogenous in hESCs)); assay: co-IP; endogenous proteins; hESCs in complete medium or treated with RA for up to 5 d, lysed in RIPA buffer; 0.5 mg lysate with 2.5 ug antibody (p53, HDM2 or TRIM24) overnight at 4 C, Protein A beads, washed twice with RIPA, Western blot
substance,measurement,setting,value
tumor suppressor p53 (from UniProt P04637 1-393),binding,[1],no binding (condition: after RA addition)
same,binding,[2],binds
